The source gives many values for each of these; only a part stands here.
Test system: L. major lysate proteins
Test: Multitargeted bead mixture chemoproteomics, single concentration competition, proteome-wide
Format: binding
Settings: for fold change: vehicle control = 1

In the case of CCCCCCOc1cccc(Cc2cnc(N)nc2N)c1 [compound 2], the fold change (protein LMJF.11.1160 PROTEIN TRANSPORT PROTEIN SEC31, PUTATIVE) is reported as 1.1, the fold change (protein LMJF.12.0030 […]-1 SUBUNIT, PUTATIVE) is reported as 1.07 and the fold change (protein LMJF.12.0530 GLUCOSE-6-PHOSPHATE ISOMERASE) is reported as 1.64. It also gave a fold change (protein LMJF.12.0670 […] OXIDASE SUBUNIT IV) of 1.08, a fold change (protein LMJF.13.0570 40S RIBOSOMAL PROTEIN S12, PUTATIVE) of 1.22 and a fold change (protein LMJF.13.1190 ADENYL[…], PUTATIVE) of 1.05. For the same compound, the fold change (protein LMJF.13.1660 CHAPERONIN TCP20, PUTATIVE) was 1.06, the “fold change vs vehicle control” value (protein LMJF.14.0190 HY[…], CONSERVED) was 1.14 and the fold change (protein LMJF.14.0460 CYS[…]-LYASE-LIKE PROTEIN) was 1.06. For the same compound, the fold change (protein LMJF.14.0680 FATTY ACID ELONGASE, PUTATIVE) was 1.25, the fold change (protein LMJF.14.1160 ENOLASE) was 1.15 and the fold change (protein LMJF.14.1440 HY[…], CONSERVED) was 1.01. For the same compound, the fold change (protein LMJF.15.0190 HYPOTHETICAL PROTEIN, CONSERVED) was 0.97, the fold change (protein LMJF.15.1160 TR[…]) was 1.16 and the “fold change vs vehicle control” value (protein LMJF.15.1380 NUCLEOLAR RNA BINDING PROTEIN, PUTATIVE) was 1.29. The fold change (protein LMJF.16.0760 TRANSALDOLASE, PUTATIVE) was 1.31, the fold change (protein LMJF.16.0940 DYNEIN LIGHT CHAIN, PUTATIVE) was 1.07 and the fold change (protein LMJF.17.0081 […] 1-ALPHA) was 1.16. For the same compound, the fold change (protein LMJF.17.0980 HY[…], CONSERVED) was 1.04, the fold change (protein LMJF.18.0210 HYPOTHETICAL PROTEIN, CONSERVED) was 1.36 and the fold change (protein LMJF.18.0580 PEROXISOMAL ENOYL-COA HYDRATASE, PUTATIVE) was 0.98. For the same compound, the fold change (protein LMJF.18.0680 CITRATE SYNTHASE, PUTATIVE) was 1.24, the fold change (protein LMJF.18.0740 […] TU, PUTATIVE) was 1.02 and the fold change (protein LMJF.18.1010 DYNEIN LIGHT CHAIN 2B, CYTOPLASMIC, PUTATIVE) was 0.93. The “fold change vs vehicle control” value (protein LMJF.18.1210 PROLYL-TRNA SYNTHETASE, PUTATIVE,BI[…]-TRNA SYNTHETASE, PUTATIVE) was 1.05, the fold change (protein LMJF.18.1380 PYRUVATE DEHYDROGENASE E1 COMPONENT ALPHA SUBUNIT, PUTATIVE) was 0.85 and the fold change (protein LMJF.19.0100 FIBRILLARIN, PUTATIVE) was 0.86. The “fold change vs vehicle control” value (protein LMJF.19.0710 […] DEHYDROGENASE) was 1.44, the fold change (protein LMJF.19.0750 HYPOTHETICAL PROTEIN, CONSERVED) was 0.89 and the fold change (protein LMJF.19.0995 4-COUMARATE:COA LIGASE-LIKE PROTEIN) was 1.34. For the same compound, the fold change (protein LMJF.19.1010 HY[…], CONSERVED) was 1.11, the fold change (protein LMJF.19.1420 CYSTEINE PEPTIDASE A (CPA)) was 0.98 and the fold change (protein LMJF.19.1560 INOSINE-5'-MONOPHOSPHATE DEHYDROGENASE) was 1.01. The “fold change vs vehicle control” value (protein LMJF.19.1620 POTASSIUM VOLTAGE-GATED CHANNEL, PUTATIVE) was 0.99, the fold change (protein LMJF.21.0280 HY[…], CONSERVED) was 1.24 and the fold change (protein LMJF.21.0540 LA RNA BINDING PROTEIN, PUTATIVE) was 1.21. For the same compound, the fold change (protein LMJF.21.1090 T-COMPLEX PROTEIN 1, DELTA SUBUNIT, PUTATIVE) was 1.03, the “fold change vs vehicle control” value (protein LMJF.21.1552 RNA HELICASE, PUTATIVE) was 1.1 and the fold change (protein LMJF.21.1710 […] OXIDASE SUBUNIT VI, PUTATIVE) was 1. It also gave a fold change (protein LMJF.21.1830 […] 5 SUBUNIT, PUTATIVE) of 1.17, a fold change (protein LMJF.22.0420 40S RIBOSOMAL PROTEIN S15, PUTATIVE) of 1.13 and a fold change (protein LMJF.22.1360 FARNESYL PYR[…]) of 1.17. The fold change (protein LMJF.22.1450 CYCLOPHILIN 6, PUTATIVE) was 1.07, the fold change (protein LMJF.23.0040 PEROXIDOXIN) was 1.19 and the fold change (protein LMJF.23.0200 ENDORI[…]-PSP (PB5), PUTATIVE) was 1.04. For the same compound, the fold change (protein LMJF.23.0560 KINESIN, PUTATIVE) was 0.99, the fold change (protein LMJF.25.1710 PYRUVATE DEHYDROGENASE E1 BETA SUBUNIT, PUTATIVE) was 0.86 and the fold change (protein LMJF.26.0280 HYPOTHETICAL PROTEIN, CONSERVED) was 1.23. The fold change (protein LMJF.26.0830 […], PUTATIVE) was 1.08, the fold change (protein LMJF.27.0190 […] 7 SUBUNIT, PUTATIVE) was 1.07 and the fold change (protein LMJF.27.0560 PROTEIN KINASE, PUTATIVE,CDC2-RELATED KINASE, PUTATIVE) was 1.11. It also gave a fold change (protein LMJF.27.0760 GTP-binding protein homologue) of 1.09, a fold change (protein LMJF.27.0930 ISOVALERYL-COA DEHYDROGENASE, PUTATIVE) of 1.19 and a fold change (protein LMJF.27.1260 T-COMPLEX PROTEIN 1, BETA SUBUNIT, PUTATIVE) of 0.99. It also gave a fold change (protein LMJF.27.1300 HY[…], CONSERVED) of 1.02, a fold change (protein LMJF.27.1390 60S ACIDIC RIBOSOMAL SUBUNIT PROTEIN, PUTATIVE) of 1.18 and a fold change (protein LMJF.27.2330 GTP BINDING PROTEIN, PUTATIVE) of 1.08. For the same compound, the fold change (protein LMJF.28.0960 40S RIBOSOMAL PROTEIN S14) was 1.19, the “fold change vs vehicle control” value (protein LMJF.28.0980 P27 PROTEIN, PUTATIVE) was 1.05 and the fold change (protein LMJF.28.2260 […] PROTEIN, PUTATIVE) was 1.11. It also gave a fold change (protein LMJF.28.2420 2-OXOGLUTARATE DEHYDROGENASE, E2 COMPONENT, DIHYDROLIPOAMIDE SUCCINYLTRANSFERASE, PUTATIVE) of 1.14, a fold change (protein LMJF.28.2430 VACUOLAR ATP SYNTHASE SUBUNIT B, PUTATIVE) of 0.88 and a fold change (protein LMJF.28.2460 RIBOSOMAL PROTEIN S29, PUTATIVE) of 1.19.
